Assay results reported in patent US20240343717A1, “MICROBIOCIDAL PYRAZOLE DERIVATIVES” (SYNGENTA CROP PROTECTION AG, priority 2021, published 2024).
Some results were stated once for a whole list of compounds, not compound by compound.

System: Puccinia recondita f. sp. tritici
Test: Puccinia recondita f. sp. tritici / wheat / leaf disc preventative (brown rust)
Assay type: in vivo
Conditions: 200 ppm, wheat leaf segments, inoculated 1 day after application

Compound | control of Puccinia recondita f. sp. tritici
Cn1cc(C(C)(CNC(=O)c2cc(-c3ccc(F)cc3F)on2)c2cccc(Cl)n2)cn1 (centres unmarked) [Compound P-10, N-[2-(6-chloro-2-pyridyl)-2-(1-methylpyrazol-4-yl)propyl]-5-(2,4-difluorophenyl)isoxazole-3-carboxamide] | at least 80%
Cn1cc(C(C)(CNC(=O)c2cc(-c3ccc(F)cc3F)on2)c2ccc(Cl)cn2)cn1 (centres unmarked) [Compound P-20, N-[2-(5-chloro-2-pyridyl)-2-(1-methylpyrazol-4-yl)propyl]-5-(2,4-difluorophenyl) isoxazole-3-carboxamide] | at least 80%
